Series [1] is described as follows: Encapsulation efficiency and loading capacity of solid lipid microspheres (UV after dissolving in chloroform). Type of series: physicochemical. As to conditions: Lidocaine in Beeswax-Chitosan MSs; average of three experiments.
The nature of series [2]: In vitro drug release from beeswax microspheres (Example 6). Type of series: physicochemical. Conditions: Lidocaine from Beeswax-Chitosan microspheres, 10 mM phosphate buffer pH 7.4, 37° C. How it is done: 10 mg of microspheres were mixed with 5 mL of H2O or buffer and placed in the incubator. Three samples of each formulation were run at same conditions. A 3 mL samples were withdrawn at predetermined time intervals and an equal volume of fresh dissolution medium was replaced.
In vitro drug release for the obtained microspheres was studied in 5 ml of 10 mM buffer phosphate solution, pH 7.4 or in ddH2O at 37° C.

On to `CCN(CC)CC(=O)Nc1c(C)cccc1C` [Lidocaine], for which the loading capacity in series [1] came to 4.9%. Also, in series [2], the “period over which the remaining drug was released” value was “at least one week”.

These data come from patent US20230263754A1, “SOLID DISPERSIONS AND PARTICLES AND METHODS FOR CONTROLLED-RELEASE OF LIPID-SOLUBLE OR DISPESIBLE ACTIVES” (YISSUM RESEARCH DEVELOPMENT COMPANY OF THE HEBREW …, priority 2020, published 2023).
